Record: PubChem BioAssay AID1224827 (NIAID, 2016)

Aim: 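Retest primary hits on a TNF reporter with six siRNAs per gene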 (follow-up of hits)
Cell system: RAW264.7 G9 mouse macrophage reporter clone
Knock-down reagent: single siRNA against mouse genes, 100 nM siRNA
Time to read-out: siRNA for 2 days, then LPS about 16 h
Conditions: bacterial lipopolysaccharide (LPS), 10 ng/ml, cells fixed after overnight (about 16 h) stimulation
Measured: 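Imaged nuclear TNF reporter intensity, background removed, scaled per plate and to non-targeting control wells, as z-scores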
Direction: TNF reporter z-score, mean: higher = stronger Tnf promoter reporter signal
Rule for the call: 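An siRNA is called active when its mean z-score over replicates is at least +2 or at most -2; control wells get no call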
In all, the deposit lists about 3,800 reagents; shown is a part drawn at random. About 2,200 of them (57%) count as active. 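Active means a strong reporter change in either direction; calls are per siRNA, not per gene; qiagen siRNAs gave weaker effects.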 Reagents against one gene are numbered here. Not all columns of the deposit are shown. No sequences are given here.

gene symbol	reagent no.	TNF reporter z-score, mean	call
Naa50 (N(alpha)-acetyltransferase 50, NatE catalytic subunit)	1	-2.13	active
Naa50 (N(alpha)-acetyltransferase 50, NatE catalytic subunit)	2	-2.63	active
Naa50 (N(alpha)-acetyltransferase 50, NatE catalytic subunit)	3	-2.62	active
Naa50 (N(alpha)-acetyltransferase 50, NatE catalytic subunit)	4	3.52	active
Naa50 (N(alpha)-acetyltransferase 50, NatE catalytic subunit)	5	3.1	active
Naa50 (N(alpha)-acetyltransferase 50, NatE catalytic subunit)	6	-0.956	inactive
Trav13-5 (T cell receptor alpha variable 13-5)	1	2.83	active
Trav13-5 (T cell receptor alpha variable 13-5)	2	-1.34	inactive
Trav13-5 (T cell receptor alpha variable 13-5)	3	-2.03	active
Trav13-5 (T cell receptor alpha variable 13-5)	4	-0.294	inactive
Trav13-5 (T cell receptor alpha variable 13-5)	5	-1.41	inactive
Trav13-5 (T cell receptor alpha variable 13-5)	6	-0.541	inactive

Part of the list above, set out differently.
gene symbol | reagent no. | TNF reporter z-score, mean | call
Trav13-5 (T cell receptor alpha variable 13-5) | 3 | -2.03 | active
Trav13-5 (T cell receptor alpha variable 13-5) | 4 | -0.294 | inactive

Further entries follow:
gene symbol	reagent no.	TNF reporter z-score, mean	call
Psmb6 (proteasome (prosome, macropain) subunit, beta type 6)	1	0.506	inactive
Psmb6 (proteasome (prosome, macropain) subunit, beta type 6)	2	-2.37	active
Psmb6 (proteasome (prosome, macropain) subunit, beta type 6)	3	-2.85	active
Psmb6 (proteasome (prosome, macropain) subunit, beta type 6)	4	5.36	active
Psmb6 (proteasome (prosome, macropain) subunit, beta type 6)	5	2.76	active
Psmb6 (proteasome (prosome, macropain) subunit, beta type 6)	6	2.44	active
Pabpn1 (poly(A) binding protein, nuclear 1)	1	-2.27	active
Pabpn1 (poly(A) binding protein, nuclear 1)	2	-4.32	active
Pabpn1 (poly(A) binding protein, nuclear 1)	3	-4.46	active
Pabpn1 (poly(A) binding protein, nuclear 1)	4	-1.08	inactive
Pabpn1 (poly(A) binding protein, nuclear 1)	5	-1.52	inactive
Pabpn1 (poly(A) binding protein, nuclear 1)	6	-3.61	active
